PubChem BioAssay AID686938 | Drosophila RNAi Screening Center | 2013

Assay: 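Fly genes required for calcium entry once internal stores are emptied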 (primary screen)
Cell system: Drosophila S2R+ cells
Reagent: long dsRNA against Drosophila genes, about 0.25 µg dsRNA per well, roughly 10,000 cells
Timing: 5 days of knock-down before the calcium assay
Challenge: thapsigargin (SERCA pump blocker) to empty calcium stores; entry signal taken 4 min after adding it
Measured: 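Duplicate raw fluo-4 intensities per well from a plate reader, at rest and four minutes after thapsigargin emptied calcium stores; entry-to-rest ratio filled for only some wells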
Direction: calcium entry signal: higher = stronger calcium signal after store depletion; resting calcium signal: higher = higher resting calcium signal
Active means: 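Hit if the duplicate-averaged plate z-score for entry over resting signal is under −3; wells with weak total dye signal (Fmax z < −2) or more than 5 off-targets removed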
Meaning of the calls: active = strongly reduced calcium entry; inactive = no strong reduction
In all, the deposit lists about 23,000 reagents; this is a random part of those with a known target gene and a result. Of all reagents, 75 (0.33%) were called active. 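Raw plate signals without normalisation; calls rest on plate z-scores that were not deposited; ratio present for only 364 wells.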 Not given: the dose of the treatment.

no.	gene	amplicon	calcium entry signal, replicate 1 (fluorescence units)	calcium entry signal, replicate 2 (fluorescence units)	resting calcium signal, replicate 1 (fluorescence units)	resting calcium signal, replicate 2 (fluorescence units)	Call
1	st (scarlet)	DRSC11399	2.65e7	3.25e7	1.21e7	2.10e7	inactive
2	CG15278	DRSC02481	3.36e7	2.12e7	1.58e7	1.04e7	inactive
3	Eig71Eb (Ecdysone-induced gene 71Eb)	DRSC11149	4.39e7	4.34e7	1.86e7	1.95e7	inactive
4	Polr1A (RNA polymerase I subunit A)	DRSC07535	1.62e7	2.72e7	9.92e6	1.47e7	inactive
5	Rcd1 (Reduction in Cnn dots 1)	DRSC07116	3.79e7	3.41e7	2.11e7	1.89e7	inactive
6	alphaSnap (alpha Soluble NSF attachment protein)	DRSC11285	3.31e7	1.99e7	3.49e7	1.39e7	inactive
7	Rbp1-like	DRSC19828	3.26e7	4.72e7	1.58e7	2.13e7	inactive
8	Rbp1-like	DRSC21938	3.33e7	4.94e7	1.64e7	2.50e7	inactive
9	Rbp1-like	DRSC22075	3.41e7	5.08e7	1.58e7	2.51e7	inactive
10	nompB (no mechanoreceptor potential B)	DRSC03701	3.37e7	3.73e7	1.82e7	1.73e7	inactive
11	nompB (no mechanoreceptor potential B)	DRSC03731	3.17e7	3.18e7	1.89e7	1.60e7	inactive
12	asp (abnormal spindle)	DRSC16903	5.49e7	4.34e7	2.48e7	1.82e7	inactive
13	CG31275	DRSC16919	2.52e7	4.18e7	1.29e7	4.35e7	inactive
14	SmydA-3 (SET and MYND domain containing, arthropod-specific, member 3)	DRSC02565	4.42e7	4.17e7	2.00e7	1.94e7	inactive
15	SmydA-3 (SET and MYND domain containing, arthropod-specific, member 3)	DRSC02566	3.95e7	4.88e7	1.88e7	2.12e7	inactive
16	mthl10 (methuselah-like 10)	DRSC08504	3.60e7	3.89e7	1.71e7	1.68e7	inactive
17	mthl10 (methuselah-like 10)	DRSC08505	3.57e7	4.55e7	1.79e7	1.97e7	inactive
18	CG5767	DRSC06953	4.51e7	4.32e7	1.98e7	2.11e7	inactive
19	CG14104	DRSC10106	3.11e7	5.19e7	1.50e7	2.10e7	inactive
20	CG7702	DRSC16293	3.43e7	2.34e7	1.51e7	1.02e7	inactive
21	CG31832	DRSC22067	3.42e7	4.16e7	1.65e7	2.24e7	inactive
22	CG12576	DRSC20621	4.33e7	5.00e7	1.93e7	1.92e7	inactive
23	Ptpmeg (Protein tyrosine phosphatase Meg)	DRSC08684	4.71e7	3.77e7	2.14e7	1.93e7	inactive
24	Cap-D2 (CAP-D2 condensin subunit)	DRSC15401	2.95e7	2.48e7	1.62e7	1.43e7	inactive
25	CG44251	DRSC06856	2.26e7	3.22e7	1.21e7	1.29e7	inactive

Copied from the listing for reference:
no.	gene	amplicon	calcium entry signal, replicate 1 (fluorescence units)	calcium entry signal, replicate 2 (fluorescence units)	resting calcium signal, replicate 1 (fluorescence units)	resting calcium signal, replicate 2 (fluorescence units)	Call
21	CG31832	DRSC22067	3.42e7	4.16e7	1.65e7	2.24e7	inactive
22	CG12576	DRSC20621	4.33e7	5.00e7	1.93e7	1.92e7	inactive
23	Ptpmeg (Protein tyrosine phosphatase Meg)	DRSC08684	4.71e7	3.77e7	2.14e7	1.93e7	inactive

The results go on:
no.	gene	amplicon	calcium entry signal, replicate 1 (fluorescence units)	calcium entry signal, replicate 2 (fluorescence units)	resting calcium signal, replicate 1 (fluorescence units)	resting calcium signal, replicate 2 (fluorescence units)	Call
26	CG32971	DRSC01372	1.86e7	3.41e7	1.09e7	1.54e7	inactive
27	KCNQ (KCNQ potassium channel)	DRSC06121	4.93e7	4.16e7	2.19e7	1.69e7	inactive
28	KCNQ (KCNQ potassium channel)	DRSC06230	5.00e7	3.89e7	2.22e7	1.72e7	inactive
29	CG14298	DRSC14777	2.98e7	3.56e7	3.50e7	1.41e7	inactive
30	mod (modulo)	DRSC16999	3.21e7	3.38e7	1.48e7	1.62e7	inactive
31	Lrrk (Leucine-rich repeat kinase)	DRSC15816	4.02e7	4.47e7	4.56e7	2.24e7	inactive
32	Lrrk (Leucine-rich repeat kinase)	DRSC21971	1.84e7	6.34e7	9.65e6	2.60e7	inactive
33	CG10911	DRSC06008	3.90e7	3.94e7	1.83e7	1.94e7	inactive
34	Tsp42En (Tetraspanin 42En)	DRSC06185	2.87e7	4.06e7	1.41e7	1.68e7	inactive
35	Ac78C (Adenylyl cyclase 78C)	DRSC11467	3.34e7	3.02e7	1.75e7	1.50e7	inactive
36	Ac78C (Adenylyl cyclase 78C)	DRSC11602	3.34e7	4.92e7	1.62e7	2.12e7	inactive
37	Ac78C (Adenylyl cyclase 78C)	DRSC11619	2.77e7	4.51e7	1.38e7	1.94e7	inactive
38	ctrip (circadian trip)	DRSC12242	2.52e7	4.40e7	1.34e7	1.93e7	inactive
39	ctrip (circadian trip)	DRSC12287	2.32e7	2.57e7	1.07e7	1.32e7	inactive
40	ctrip (circadian trip)	DRSC22449	2.76e7	2.71e7	1.49e7	1.21e7	inactive
